US20200225234A1
These are yes or no findings as the source states them, for the method shown. Some binding calls cover weakened binding; strength is not graded here. Tags and fused reporters may be left off the sequences shown.

Experiments:
His-MRS (human) [1] = biological target: T1, His-MRS (human) (UniProt P56192); assay: ELISA, coated His-MRS, one antibody concentration, absorbance at 450 nm
T1 sequence: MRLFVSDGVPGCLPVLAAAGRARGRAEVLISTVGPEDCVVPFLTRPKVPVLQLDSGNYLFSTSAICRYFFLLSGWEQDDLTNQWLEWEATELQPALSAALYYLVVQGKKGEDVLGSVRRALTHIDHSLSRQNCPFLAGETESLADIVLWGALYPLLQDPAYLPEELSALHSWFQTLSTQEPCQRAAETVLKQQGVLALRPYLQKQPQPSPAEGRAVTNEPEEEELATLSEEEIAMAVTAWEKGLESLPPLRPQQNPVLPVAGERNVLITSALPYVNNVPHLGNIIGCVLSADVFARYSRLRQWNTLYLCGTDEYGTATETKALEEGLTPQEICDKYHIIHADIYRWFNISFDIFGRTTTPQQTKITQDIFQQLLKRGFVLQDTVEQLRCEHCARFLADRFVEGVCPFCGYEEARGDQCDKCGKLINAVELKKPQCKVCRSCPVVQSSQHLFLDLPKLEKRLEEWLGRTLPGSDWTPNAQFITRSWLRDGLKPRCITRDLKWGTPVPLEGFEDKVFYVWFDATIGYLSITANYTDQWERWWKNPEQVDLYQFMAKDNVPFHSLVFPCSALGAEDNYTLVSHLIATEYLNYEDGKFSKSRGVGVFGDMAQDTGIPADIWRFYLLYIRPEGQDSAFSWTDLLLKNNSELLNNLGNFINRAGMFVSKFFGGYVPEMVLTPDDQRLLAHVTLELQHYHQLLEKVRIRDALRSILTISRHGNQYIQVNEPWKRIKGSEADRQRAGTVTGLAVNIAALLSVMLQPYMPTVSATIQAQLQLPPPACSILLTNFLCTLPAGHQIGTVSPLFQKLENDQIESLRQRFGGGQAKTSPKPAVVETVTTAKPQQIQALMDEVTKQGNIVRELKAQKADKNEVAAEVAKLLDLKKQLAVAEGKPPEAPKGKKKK

His-MRS (human) [2] = biological target: T1, His-MRS (human); assay: ELISA, protein coated at 1 ug/ml, antibody at 500 ng/ml

- binding (His-MRS (human) [1]): binds
- binding (His-MRS (human) [2]): binds
B1: 8A12 antibody (whole 8A12 IgG antibody) (antibody, V domains shown)
VH: DVKLQESGPGLVKPSQSLSLTCTVTGYSITSEYAWTWIRQFPGNKLEWMGYINYNGNTNLNPSLKSRISIIRDTSKNQFFLQLNSVTTEDTATYYCARSLWPRGWFAYWGQGTLVTVSA
VL: DIQMTQSPSSMYASLGERVTITCKASQDINSYLSWFQQKPGKSPKTLMYRANRLVDGVPSRFSGSGSGQDYSLTISSLEYEDMGIYYCLQYDEFPRTFGGGTKLEIKA
